Measurements reported in PubChem BioAssay AID540276 (National Center for Advancing Translational Sciences (NCATS), 2011).
The whole screen tested about 300,000 compounds, of which about 5,400 (1.8%) were called active. This list was built around the results that the source calls inconclusive (neither active nor inactive); the mix of calls is not that of the screen. The call rests on the fitted dose curve; tested in HEK293 cells. Where the call is inconclusive, the potency comes from a doubtful curve fit.

Experiment: qHTS for inhibitors of binding or entry into cells for Marburg Virus
Settings: Marburg virus pseudotyped entry inhibition, cell reporter; activity change, negative = inhibition: at 37.8 µM (top of the series) unless noted
On the % scale 0 is the no-effect control and ±100 the full control effect; potency means the concentration at half of the fitted maximal effect.

SMILES	Potency	activity change, negative = inhibition
Cc1ccc(CNc2ccc(S(=O)(=O)N3CCOCC3)cc2[N+](=O)[O-])cc1	inconclusive: 1.26 µM [inhibitor, single point]	
CCc1ccc(N(CC(=O)Nc2ccccc2C(=O)N2CCOCC2)S(C)(=O)=O)cc1	inconclusive: 6.31 µM [activator, single point]	
COc1ccc(-n2c(-c3ccco3)nc3c(cnn3-c3ccc(C)cc3)c2=O)cc1	inactive	
C=CCNC(=O)c1cccc(Br)c1	inconclusive: 0.103 µM [inhibitor, full curve, poor fit]	
Cc1ccc(NCC(=O)N/N=C/c2cccc(Oc3ccccc3)c2)cc1		inactive: 4.23%
O=C(NCCCC1CCCC1)C1CCC(=O)N(Cc2cccc(F)c2)C1 (stereo unspecified)		inactive: -29% [at 46.1 µM]
Cc1nnc(SCC(=O)N2c3ccccc3C(C)(c3ccc(Cl)cc3)CC2(C)C)s1 (stereo unspecified)	active: 10 µM	
Cc1ccccc1-c1cc(C(=O)N/N=C/c2cccnc2)c2ccccc2n1		inactive: -9.11% [at 46.1 µM]
O=c1cc2c(nn1Cc1c(Cl)cccc1Cl)-c1ccccc1CC2	inconclusive: 14.1 µM [inhibitor, single point]	
CCOCCCNS(=O)(=O)c1ccc2c(c1)CCN2C(=O)CC	inconclusive: 25.1 µM [inhibitor, partial curve, poor fit]	
CC(C)C(=O)Nc1ccc2nc(SCCOc3ccccc3)sc2c1		inactive: -19.8% [at 46.1 µM]
O=C(Nn1cnnc1)c1ccc(F)c(S(=O)(=O)N2CCCCC2)c1		inactive: -0.132%
Cc1ccc(NC(=O)c2cc(S(=O)(=O)NCCC3=CCCCC3)ccc2F)cc1	inconclusive: 0.794 µM [inhibitor, full curve, poor fit]	
Cc1ccc(NC(=S)N(CCCN2CCCC2)Cc2cccn2Cc2ccc(Cl)cc2)cc1Cl	active: 8.91 µM	
Cc1ccc(C(=O)n2nc(-c3ccccc3)nc2NCc2ccco2)cc1		inactive: -0.438%
NS(=O)(=O)c1ccc(CCNC(=O)CN2CCN(Cc3cccc4ccccc34)CC2)cc1	inconclusive: 35.5 µM [inhibitor, single point]	
O=C(/C=C/c1cccc(F)c1)OCC(=O)N1CCCC1	inconclusive: 17.8 µM [inhibitor, single point]	
COc1ccccc1N1CCN(C/C=C/c2ccc(N(C)C)cc2)CC1		inactive: 2.23%
CCS(=O)(=O)N1CCc2cc(C(=O)Nc3cc(Cl)ccc3C)ccc21		inactive: 2.65% [at 46.1 µM]
O=P1(O)C=C(c2ccccc2)OC(c2ccccc2)=C1	inconclusive: 6.31 µM [activator, partial curve]	
C[C@]12CCC(=O)C=C1C=CC1C2CC[C@@]2(C)C1CC[C@@H]2O (stereo partly specified)	inconclusive: 17.8 µM [inhibitor, partial curve, poor fit]	

A section from further up:
SMILES	Potency	activity change, negative = inhibition
Cc1ccc(C(=O)n2nc(-c3ccccc3)nc2NCc2ccco2)cc1		inactive: -0.438%
NS(=O)(=O)c1ccc(CCNC(=O)CN2CCN(Cc3cccc4ccccc34)CC2)cc1	inconclusive: 35.5 µM [inhibitor, single point]	
